Experimental data published in article PMC7862700.
The list shows a part of the results, in another mix than the full data. At the low end of the ranking, values are background and their order means little.

Protein sequences, listed by entry. Tags and fused reporters are not part of them. Lines headed by an entry give the natural chain unless they say otherwise; changes in a name come on top.
UniProt Q01892: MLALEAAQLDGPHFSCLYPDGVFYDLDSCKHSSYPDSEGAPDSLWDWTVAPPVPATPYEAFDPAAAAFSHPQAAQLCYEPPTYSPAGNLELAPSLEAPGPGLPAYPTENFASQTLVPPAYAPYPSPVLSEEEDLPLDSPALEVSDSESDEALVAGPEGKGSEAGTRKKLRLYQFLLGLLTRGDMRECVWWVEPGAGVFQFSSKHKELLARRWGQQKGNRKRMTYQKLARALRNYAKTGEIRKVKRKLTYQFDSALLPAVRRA
UniProt P41161: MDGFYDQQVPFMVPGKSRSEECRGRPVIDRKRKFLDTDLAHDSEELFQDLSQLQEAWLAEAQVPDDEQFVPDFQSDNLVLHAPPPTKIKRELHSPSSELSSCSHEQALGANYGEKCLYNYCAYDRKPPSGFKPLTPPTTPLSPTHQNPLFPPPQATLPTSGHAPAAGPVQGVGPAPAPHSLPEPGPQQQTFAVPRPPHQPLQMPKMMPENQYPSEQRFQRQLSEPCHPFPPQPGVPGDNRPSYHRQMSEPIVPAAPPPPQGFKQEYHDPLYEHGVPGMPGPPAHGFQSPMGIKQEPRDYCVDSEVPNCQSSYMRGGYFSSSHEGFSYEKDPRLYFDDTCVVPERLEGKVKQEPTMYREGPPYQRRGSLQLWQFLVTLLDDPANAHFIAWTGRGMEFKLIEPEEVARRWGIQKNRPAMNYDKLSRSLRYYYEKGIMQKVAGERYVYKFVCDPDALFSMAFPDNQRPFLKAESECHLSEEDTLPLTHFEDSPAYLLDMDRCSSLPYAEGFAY
UniProt Q99607: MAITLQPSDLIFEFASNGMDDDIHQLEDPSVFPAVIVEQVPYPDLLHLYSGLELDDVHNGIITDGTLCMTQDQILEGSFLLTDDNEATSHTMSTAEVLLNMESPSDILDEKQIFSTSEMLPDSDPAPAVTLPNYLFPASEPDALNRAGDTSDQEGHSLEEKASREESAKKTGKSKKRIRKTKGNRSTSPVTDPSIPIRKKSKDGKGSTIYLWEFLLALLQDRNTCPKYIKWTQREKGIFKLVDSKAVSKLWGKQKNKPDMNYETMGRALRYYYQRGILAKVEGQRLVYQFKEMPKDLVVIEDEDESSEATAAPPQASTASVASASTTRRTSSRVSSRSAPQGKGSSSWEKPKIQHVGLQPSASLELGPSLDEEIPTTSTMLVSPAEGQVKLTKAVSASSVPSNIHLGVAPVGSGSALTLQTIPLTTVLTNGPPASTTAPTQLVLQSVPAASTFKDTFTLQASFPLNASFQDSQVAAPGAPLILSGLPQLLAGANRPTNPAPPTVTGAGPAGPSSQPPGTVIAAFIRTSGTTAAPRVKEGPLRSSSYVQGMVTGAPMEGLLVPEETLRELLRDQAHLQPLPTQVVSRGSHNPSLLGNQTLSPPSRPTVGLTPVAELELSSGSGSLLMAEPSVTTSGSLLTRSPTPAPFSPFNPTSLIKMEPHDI

Legend:
Assay in all cases: DAPPL (digital affinity profiling via proximity ligation, sequencing)
Conditions in all cases: 10 mM Tris-HCl pH 7.5, 50 mM NaCl, 1 mM DTT, 4% glycerol, room temperature, 30 min; GST-TFs on glutathione beads, 16-mer random dsDNA library, 0.1% …; high values mean tight binding; double strand, one strand shown; scale: fold enrichment (6-mer frequency, TF over GST control)
FLI1 = molecular target: T1, FLI1 (UniProt Q01543)
T1 sequence: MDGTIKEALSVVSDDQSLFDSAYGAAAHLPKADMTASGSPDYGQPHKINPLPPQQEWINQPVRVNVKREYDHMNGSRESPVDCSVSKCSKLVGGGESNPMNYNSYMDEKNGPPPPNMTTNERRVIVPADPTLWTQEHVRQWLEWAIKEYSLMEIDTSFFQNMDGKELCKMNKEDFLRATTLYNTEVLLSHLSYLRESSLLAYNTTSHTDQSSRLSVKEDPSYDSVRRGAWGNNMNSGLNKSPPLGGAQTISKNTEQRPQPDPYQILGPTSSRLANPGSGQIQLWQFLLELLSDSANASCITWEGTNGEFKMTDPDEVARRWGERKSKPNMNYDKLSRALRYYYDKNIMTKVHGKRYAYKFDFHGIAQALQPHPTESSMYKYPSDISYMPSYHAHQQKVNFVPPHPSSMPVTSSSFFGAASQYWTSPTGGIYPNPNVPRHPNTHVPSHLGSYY

EHF = molecular target: T2, EHF (UniProt Q9NZC4)
T2 sequence: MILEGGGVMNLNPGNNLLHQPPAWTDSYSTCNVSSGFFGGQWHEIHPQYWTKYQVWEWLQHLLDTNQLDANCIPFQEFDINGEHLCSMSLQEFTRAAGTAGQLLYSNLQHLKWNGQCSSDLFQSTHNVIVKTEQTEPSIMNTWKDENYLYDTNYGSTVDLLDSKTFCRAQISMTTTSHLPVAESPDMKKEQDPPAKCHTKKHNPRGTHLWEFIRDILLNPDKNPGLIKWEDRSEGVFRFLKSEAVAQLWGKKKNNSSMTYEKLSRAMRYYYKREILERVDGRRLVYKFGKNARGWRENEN

SPIB = SPIB (UniProt Q01892)
ETV5 = ETV5 (UniProt P41161)
ELF4 = ELF4 (UniProt Q99607)
ETV2 = molecular target: T3, ETV2 (UniProt O00321)
T3 sequence: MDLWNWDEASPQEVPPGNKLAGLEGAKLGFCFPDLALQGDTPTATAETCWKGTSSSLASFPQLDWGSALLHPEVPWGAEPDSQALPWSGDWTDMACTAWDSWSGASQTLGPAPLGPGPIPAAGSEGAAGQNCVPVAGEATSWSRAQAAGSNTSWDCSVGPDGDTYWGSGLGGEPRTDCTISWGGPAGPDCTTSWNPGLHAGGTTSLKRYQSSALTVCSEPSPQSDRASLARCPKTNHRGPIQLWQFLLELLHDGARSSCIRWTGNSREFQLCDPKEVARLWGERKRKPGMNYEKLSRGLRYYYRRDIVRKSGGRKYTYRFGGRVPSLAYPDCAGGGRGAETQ

ETV3L = molecular target: T4, ETV3L (UniProt Q6ZN32)
T4 sequence: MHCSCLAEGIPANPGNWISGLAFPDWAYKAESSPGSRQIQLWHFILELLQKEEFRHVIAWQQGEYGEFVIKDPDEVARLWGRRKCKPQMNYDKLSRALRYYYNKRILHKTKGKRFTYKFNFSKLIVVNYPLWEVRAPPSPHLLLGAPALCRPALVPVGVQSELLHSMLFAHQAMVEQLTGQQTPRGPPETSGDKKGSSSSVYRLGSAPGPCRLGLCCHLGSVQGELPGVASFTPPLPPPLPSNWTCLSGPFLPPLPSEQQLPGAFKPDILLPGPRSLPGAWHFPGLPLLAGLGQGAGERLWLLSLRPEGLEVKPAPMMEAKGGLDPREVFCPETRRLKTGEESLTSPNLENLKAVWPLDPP

Row | Sequence | binding signal (FLI1) | binding signal (EHF) | binding signal (SPIB) | binding signal (ETV5) | binding signal (ELF4) | binding signal (ETV2) | binding signal (ETV3L)
1 | CGTGGA | 0.49 | 0.617 | 0.562 | 0.554 | 0.551 | 0.512 | 0.561
2 | GGAATC | 0.693 | 0.747 | 0.698 | 0.802 | 0.704 | 0.724 | 0.768
3 | ACGGGA | 0.528 | 0.547 | 0.548 | 0.517 | 0.507 | 0.54 | 0.537
4 | GAGGCC | 0.426 | 0.418 | 0.435 | 0.389 | 0.438 | 0.451 | 0.412
5 | GGTGTA | 0.819 | 0.884 | 0.801 | 0.797 | 0.867 | 0.89 | 0.764
6 | CGTGAC | 0.59 | 0.589 | 0.536 | 0.546 | 0.525 | 0.539 | 0.608
7 | GAGGAC | 0.615 | 0.66 | 0.574 | 0.596 | 0.645 | 0.726 | 0.629
8 | TGGGTC | 0.696 | 0.667 | 0.643 | 0.635 | 0.666 | 0.617 | 0.692
9 | GGGCTG | 0.876 | 0.92 | 0.877 | 0.911 | 0.96 | 0.957 | 
10 | GCAGGA | 0.775 | 0.84 | 0.876 | 0.872 | 0.762 | 0.857 | 0.854
11 | AAGACA | 0.975 | 0.984 | 1.02 | 0.996 | 0.919 | 0.937 | 
12 | GGTTGC | 0.935 | 0.929 | 1 | 0.989 | 0.912 | 0.867 | 
13 | GTGGAG | 0.406 | 0.484 | 0.36 | 0.446 | 0.397 | 0.36 | 0.435
14 | CAACAG | 0.975 |  | 0.911 | 0.924 | 0.938 | 0.957 | 0.887
15 | ACGAGT | 0.721 | 0.728 | 0.708 | 0.728 | 0.764 | 0.779 | 0.722
16 | CACGTC | 0.894 | 0.816 | 0.889 | 0.897 | 0.896 | 0.945 | 0.896
17 | GAGCTA | 0.904 |  | 0.833 | 0.906 | 0.917 | 0.939 | 0.907
18 | GACACC | 0.839 | 0.87 | 0.864 | 0.904 | 0.908 | 0.813 | 
19 | GGCACA | 0.847 | 0.859 | 0.904 | 0.844 | 0.863 | 0.798 | 0.853
20 | GGACTA | 0.836 | 0.822 | 0.911 | 0.817 | 0.869 | 0.862 | 0.918
21 | CGAGGC | 0.687 | 0.631 | 0.682 | 0.626 | 0.718 | 0.653 | 0.621
22 | GGAACC | 0.827 | 0.885 | 0.86 | 0.872 | 0.807 | 0.901 | 0.824
23 | GCACGT | 0.852 | 0.781 | 0.894 | 0.772 | 0.845 | 0.736 | 0.826

Row | Sequence | binding signal (FLI1) | binding signal (EHF) | binding signal (SPIB) | binding signal (ETV5) | binding signal (ELF4) | binding signal (ETV2) | binding signal (ETV3L)
24 | GTATAG | 0.913 | 0.943 | 0.937 | 0.946 | 0.888 | 0.889 | 
25 | ACCGTA | 0.893 | 0.846 | 0.87 | 0.834 | 0.906 | 0.896 | 0.881
26 | GAGACT | 0.422 | 0.358 | 0.382 | 0.408 | 0.4 | 0.384 | 0.39
27 | AGTTCA | 0.948 | 0.961 | 0.902 | 0.946 | 0.899 | 0.89 | 
28 | ACCAGC | 0.833 | 0.838 | 0.86 | 0.875 | 0.817 | 0.866 | 0.936
29 | GACCCG | 0.884 | 0.968 | 0.807 | 0.916 | 0.868 | 0.772 | 0.825
30 | TACCAG | 0.822 | 0.886 | 0.802 | 0.849 | 0.877 | 0.905 | 0.862
31 | AGCGCA | 0.918 | 0.886 | 0.909 | 0.898 | 0.879 | 0.875 | 
32 | TGACAG | 0.993 | 0.936 | 0.981 | 0.881 | 0.982 | 0.913 | 
33 | GTGCAA | 0.913 |  | 0.958 | 0.955 | 0.982 | 0.85 | 0.909
34 | CGGTGA | 0.476 | 0.445 | 0.403 | 0.462 | 0.463 | 0.434 | 0.458
35 | GCGGTT | 0.786 | 0.75 | 0.824 | 0.833 | 0.755 | 0.75 | 0.74
36 | ATGGAG | 0.559 | 0.598 | 0.517 | 0.582 | 0.581 | 0.498 | 0.592
37 | AGATAC | 0.925 |  | 0.89 | 0.877 | 0.932 | 0.981 | 0.987
38 | AGTCTG | 0.683 | 0.64 | 0.615 | 0.587 | 0.58 | 0.589 | 0.558
39 | CGGTAA | 0.975 |  | 0.927 | 0.962 | 0.949 | 0.855 | 0.969
40 | AGCACC | 0.904 | 0.966 | 0.919 | 0.88 | 0.889 | 0.932 | 
41 | CGTAAG | 0.776 | 0.781 | 0.737 | 0.754 | 0.758 | 0.802 | 0.806
42 | GTGGGT | 0.461 | 0.486 | 0.425 | 0.468 | 0.441 | 0.517 | 0.544
43 | TCGCCA | 0.925 | 0.85 | 0.953 | 0.976 | 0.94 | 0.904 | 
44 | GGCGCT | 0.777 | 0.655 | 0.697 | 0.693 | 0.728 | 0.78 | 0.745
45 | CGGTAG | 0.699 | 0.715 | 0.65 | 0.752 | 0.771 | 0.71 | 0.743

Shown comma-delimited: entries from further up.
Row,Sequence,binding signal (FLI1),binding signal (EHF),binding signal (SPIB),binding signal (ETV5),binding signal (ELF4),binding signal (ETV2),binding signal (ETV3L)
28,ACCAGC,0.833,0.838,0.86,0.875,0.817,0.866,0.936
29,GACCCG,0.884,0.968,0.807,0.916,0.868,0.772,0.825
30,TACCAG,0.822,0.886,0.802,0.849,0.877,0.905,0.862
31,AGCGCA,0.918,0.886,0.909,0.898,0.879,0.875,
32,TGACAG,0.993,0.936,0.981,0.881,0.982,0.913,
33,GTGCAA,0.913,,0.958,0.955,0.982,0.85,0.909
34,CGGTGA,0.476,0.445,0.403,0.462,0.463,0.434,0.458
35,GCGGTT,0.786,0.75,0.824,0.833,0.755,0.75,0.74
36,ATGGAG,0.559,0.598,0.517,0.582,0.581,0.498,0.592
37,AGATAC,0.925,,0.89,0.877,0.932,0.981,0.987
38,AGTCTG,0.683,0.64,0.615,0.587,0.58,0.589,0.558
39,CGGTAA,0.975,,0.927,0.962,0.949,0.855,0.969
